{"source": "patent US20030108877A1", "about": "“Methods for selecting and producing selective pharmaceutical compounds and compositions using an established genetically altered cell-based library responsive to transcription factors; genetic constructs and library therefor” (priority 2000, published 2003)", "test_system": "estrogen receptor ER", "test": "GFP reporter under ER-responsive minimal promoter, stably transfected MCF-7 cells", "type": "cell-based", "details": "MCF-7 line (contains endogenous ER), estradiol added; no signal without ligand", "note": "Entries after “also recorded” stand apart in the source; their conditions may differ. At least one compound was matched to its structure with a doubt left."}
{"smiles": "C[C@]12CC[C@@H]3c4ccc(O)cc4CC[C@H]3[C@@H]1CC[C@@H]2O", "note": "[estradiol]", "values": [{"measurement": "GFP expression (green fluorescence)", "result": "occurred only in the cell line known to contain ER (the MCF-7 line) and only in the presence of estradiol; also recorded: can respond to the ligand and induce gene expression"}]}
